Measurements published in patent publication US20210015819A1, “METHODS FOR TREATMENT OF CANCERS WITH EGFR ACTIVATING MUTATIONS” (Board of Regents, The University of Texas System, priority 2018, published 2021).

Columns and labels:
[1] = system: HCC4006; assay: 5 day Cell Titer Glo assay, parental cells; assay type: cell-based; details: Homo sapiens, HCC4006, 120 h, Table 3, CDK inhibitors, 5 day Cell Titer Glow; drugs listed twice; read-out: HCC4006 GIC50
Experimental: (§1) Proteomic profiling of resistant cells was performed by reverse phase protein array (RPPA) and Western blotting for markers of epithelial to mesenchymal transition (EMT). Cell Titer glow assay in a high-throughput 384 well plate system was utilized for drug screening. Long-term effect of SAC and CDK inhibitors was evaluated by […] clonogenic assay.

[2] = system: HCC4006 ER; assay: 5 day Cell Titer Glo assay, erlotinib resistant cells; assay type: cell-based; details: Homo sapiens, HCC4006, 120 h, Table 3, CDK inhibitors, 5 day Cell Titer Glow; drugs listed twice; read-out: HCC4006 ER GIC50
Experimental: as §1

IC50 [2]: 10 nM
SMILES: CCc1cnn2c(NCc3ccc[n+]([O-])c3)cc(N3CCCC[C@H]3CCO)nc12 [Dinaciclib]
IC50 [1]: 10 nM
